{"source": "paper PMC8464548", "key": {"[1]": {"target": "T1, epitope-tagged KIF2C overexpressed in HEK293T cells (human) (UniProt Q99661)", "T1 sequence": "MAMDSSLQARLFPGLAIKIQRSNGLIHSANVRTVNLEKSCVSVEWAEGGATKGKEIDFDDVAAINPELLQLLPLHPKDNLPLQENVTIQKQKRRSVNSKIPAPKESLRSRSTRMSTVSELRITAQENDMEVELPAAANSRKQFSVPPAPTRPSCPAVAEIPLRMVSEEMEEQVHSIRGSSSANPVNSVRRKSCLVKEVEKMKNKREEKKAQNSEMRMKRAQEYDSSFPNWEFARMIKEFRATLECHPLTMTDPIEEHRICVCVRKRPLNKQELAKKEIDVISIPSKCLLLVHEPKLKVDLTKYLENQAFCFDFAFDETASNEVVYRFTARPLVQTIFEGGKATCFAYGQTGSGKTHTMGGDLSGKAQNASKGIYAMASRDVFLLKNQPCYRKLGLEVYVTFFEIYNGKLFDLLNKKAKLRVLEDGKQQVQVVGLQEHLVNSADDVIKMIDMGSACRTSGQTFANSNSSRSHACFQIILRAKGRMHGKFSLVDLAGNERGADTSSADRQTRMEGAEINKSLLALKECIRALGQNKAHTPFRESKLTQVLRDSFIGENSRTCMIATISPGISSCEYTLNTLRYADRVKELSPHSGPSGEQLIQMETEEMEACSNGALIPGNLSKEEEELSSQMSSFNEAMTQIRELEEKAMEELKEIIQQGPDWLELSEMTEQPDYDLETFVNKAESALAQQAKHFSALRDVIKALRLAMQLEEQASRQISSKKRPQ", "experiment": "co-IP; epitope-tagged KIF2C and TBC1D7 overexpressed in HEK293T cells; TNE lysis buffer, protein A/G beads 4 °C 4 h; Western blot"}, "[2]": {"target": "T2, endogenous KIF2C (human (endogenous in HepG2 or SK-Hep1)) (UniProt Q99661)", "T2 sequence": "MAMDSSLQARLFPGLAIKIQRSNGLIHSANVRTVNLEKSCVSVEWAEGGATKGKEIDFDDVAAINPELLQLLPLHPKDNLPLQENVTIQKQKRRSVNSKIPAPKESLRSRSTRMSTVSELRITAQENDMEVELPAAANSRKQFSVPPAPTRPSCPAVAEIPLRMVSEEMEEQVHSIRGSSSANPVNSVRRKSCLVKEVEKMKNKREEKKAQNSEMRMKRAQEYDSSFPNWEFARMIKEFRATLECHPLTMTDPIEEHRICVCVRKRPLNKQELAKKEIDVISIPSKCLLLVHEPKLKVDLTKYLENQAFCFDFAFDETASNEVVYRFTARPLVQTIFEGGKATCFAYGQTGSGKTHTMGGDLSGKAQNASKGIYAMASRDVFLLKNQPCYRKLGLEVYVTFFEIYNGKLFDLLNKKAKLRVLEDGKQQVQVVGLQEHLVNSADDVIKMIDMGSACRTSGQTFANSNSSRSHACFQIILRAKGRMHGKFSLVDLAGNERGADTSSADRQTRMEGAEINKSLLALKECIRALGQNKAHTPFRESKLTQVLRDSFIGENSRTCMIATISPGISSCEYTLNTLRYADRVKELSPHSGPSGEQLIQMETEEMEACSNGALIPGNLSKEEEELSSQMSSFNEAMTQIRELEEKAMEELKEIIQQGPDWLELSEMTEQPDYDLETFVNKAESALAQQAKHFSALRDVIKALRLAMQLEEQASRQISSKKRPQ", "experiment": "co-IP; endogenous proteins; HepG2 cells by the text, wild type SK-Hep1 cells by the legend; TNE lysis buffer, protein A/G beads 4 °C 4 h; Western blot"}, "[3]": {"target": "T3, endogenous TBC1D7 (human (endogenous in HepG2 and SK-Hep1)) (UniProt Q9P0N9)", "T3 sequence": "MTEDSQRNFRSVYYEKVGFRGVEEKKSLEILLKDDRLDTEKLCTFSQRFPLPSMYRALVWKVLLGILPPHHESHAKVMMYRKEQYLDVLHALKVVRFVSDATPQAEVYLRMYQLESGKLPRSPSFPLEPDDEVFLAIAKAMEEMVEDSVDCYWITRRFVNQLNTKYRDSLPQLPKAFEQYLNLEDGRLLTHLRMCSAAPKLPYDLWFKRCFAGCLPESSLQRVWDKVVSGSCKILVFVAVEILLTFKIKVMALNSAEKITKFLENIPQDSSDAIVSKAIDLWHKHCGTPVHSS", "experiment": "co-IP; endogenous TBC1D7, TSC1 and TSC2 in SK-Hep1 cells with KIF2C knock-down and in HepG2 cells with KIF2C overexpression, against control cells; TNE lysis buffer, protein A/G beads 4 °C 4 h; Western blot"}}, "note": "These are yes or no findings as the source states them, for the method shown. In cells and extracts the contact can be indirect. Some binding calls cover weakened binding; strength is not graded here. For part of these data: Where a sequence is shown, tags or fusion partners need not be part of it."}
{"binder": "epitope-tagged TBC1D7 overexpressed in HEK293T cells (protein, UniProt Q9P0N9 1-293) MTEDSQRNFRSVYYEKVGFRGVEEKKSLEILLKDDRLDTEKLCTFSQRFPLPSMYRALVWKVLLGILPPHHESHAKVMMYRKEQYLDVLHALKVVRFVSDATPQAEVYLRMYQLESGKLPRSPSFPLEPDDEVFLAIAKAMEEMVEDSVDCYWITRRFVNQLNTKYRDSLPQLPKAFEQYLNLEDGRLLTHLRMCSAAPKLPYDLWFKRCFAGCLPESSLQRVWDKVVSGSCKILVFVAVEILLTFKIKVMALNSAEKITKFLENIPQDSSDAIVSKAIDLWHKHCGTPVHSS", "values": [{"measurement": "binding", "setting": "[1]", "result": "binds"}]}
{"binder": "endogenous TBC1D7 (protein, UniProt Q9P0N9 1-293) MTEDSQRNFRSVYYEKVGFRGVEEKKSLEILLKDDRLDTEKLCTFSQRFPLPSMYRALVWKVLLGILPPHHESHAKVMMYRKEQYLDVLHALKVVRFVSDATPQAEVYLRMYQLESGKLPRSPSFPLEPDDEVFLAIAKAMEEMVEDSVDCYWITRRFVNQLNTKYRDSLPQLPKAFEQYLNLEDGRLLTHLRMCSAAPKLPYDLWFKRCFAGCLPESSLQRVWDKVVSGSCKILVFVAVEILLTFKIKVMALNSAEKITKFLENIPQDSSDAIVSKAIDLWHKHCGTPVHSS", "values": [{"measurement": "binding", "setting": "[2]", "result": "binds"}]}
{"binder": "tuberous sclerosis complex 1 (TSC1), endogenous (protein, UniProt Q92574 1-1164) MAQQANVGELLAMLDSPMLGVRDDVTAVFKENLNSDRGPMLVNTLVDYYLETSSQPALHILTTLQEPHDKHLLDRINEYVGKAATRLSILSLLGHVIRLQPSWKHKLSQAPLLPSLLKCLKMDTDVVVLTTGVLVLITMLPMIPQSGKQHLLDFFDIFGRLSSWCLKKPGHVAEVYLVHLHASVYALFHRLYGMYPCNFVSFLRSHYSMKENLETFEEVVKPMMEHVRIHPELVTGSKDHELDPRRWKRLETHDVVIECAKISLDPTEASYEDGYSVSHQISARFPHRSADVTTSPYADTQNSYGCATSTPYSTSRLMLLNMPGQLPQTLSSPSTRLITEPPQATLWSPSMVCGMTTPPTSPGNVPPDLSHPYSKVFGTTAGGKGTPLGTPATSPPPAPLCHSDDYVHISLPQATVTPPRKEERMDSARPCLHRQHHLLNDRGSEEPPGSKGSVTLSDLPGFLGDLASEEDSIEKDKEEAAISRELSEITTAEAEPVVPRGGFDSPFYRDSLPGSQRKTHSAASSSQGASVNPEPLHSSLDKLGPDTPKQAFTPIDLPCGSADESPAGDRECQTSLETSIFTPSPCKIPPPTRVGFGSGQPPPYDHLFEVALPKTAHHFVIRKTEELLKKAKGNTEEDGVPSTSPMEVLDRLIQQGADAHSKELNKLPLPSKSVDWTHFGGSPPSDEIRTLRDQLLLLHNQLLYERFKRQQHALRNRRLLRKVIKAAALEEHNAAMKDQLKLQEKDIQMWKVSLQKEQARYNQLQEQRDTMVTKLHSQIRQLQHDREEFYNQSQELQTKLEDCRNMIAELRIELKKANNKVCHTELLLSQVSQKLSNSESVQQQMEFLNRQLLVLGEVNELYLEQLQNKHSDTTKEVEMMKAAYRKELEKNRSHVLQQTQRLDTSQKRILELESHLAKKDHLLLEQKKYLEDVKLQARGQLQAAESRYEAQKRITQVFELEILDLYGRLEKDGLLKKLEEEKAEAAEAAEERLDCCNDGCSDSMVGHNEEASGHNGETKTPRPSSARGSSGSRGGGGSSSSSSELSTPEKPPHQRAGPFSSRWETTMGEASASIPTTVGSLPSSKSFLGMKARELFRNKSESQCDEDGMTSSLSESLKTELGKDLGVEAKIPLNLDGPHPSPPTPDSVGQLHIMDYNETHHEHS", "values": [{"measurement": "binding", "setting": "[3]", "result": "binds"}]}
